Measured values reported in publication PMC8216470.
No constants are given. Whether binding was seen depends on the method and setting. A result given as binding can be weak or reduced; the word gives no strength. For some assays here: In cells and extracts the contact can be indirect.

By UniProt entry, the sequences of proteins in these tests, tags left out. Where a name states a change or a piece, a line headed by the entry shows the natural chain unless it says otherwise.
UniProt Q6PAT0: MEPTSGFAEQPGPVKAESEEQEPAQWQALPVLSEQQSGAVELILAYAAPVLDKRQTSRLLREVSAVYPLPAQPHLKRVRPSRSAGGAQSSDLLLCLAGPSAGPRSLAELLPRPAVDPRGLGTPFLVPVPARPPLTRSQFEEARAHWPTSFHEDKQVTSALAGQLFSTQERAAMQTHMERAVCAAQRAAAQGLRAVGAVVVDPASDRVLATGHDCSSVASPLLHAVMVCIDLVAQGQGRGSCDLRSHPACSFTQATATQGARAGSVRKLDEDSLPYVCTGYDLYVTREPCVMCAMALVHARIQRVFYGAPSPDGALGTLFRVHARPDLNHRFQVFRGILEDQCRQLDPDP
UniProt Q6P6J0: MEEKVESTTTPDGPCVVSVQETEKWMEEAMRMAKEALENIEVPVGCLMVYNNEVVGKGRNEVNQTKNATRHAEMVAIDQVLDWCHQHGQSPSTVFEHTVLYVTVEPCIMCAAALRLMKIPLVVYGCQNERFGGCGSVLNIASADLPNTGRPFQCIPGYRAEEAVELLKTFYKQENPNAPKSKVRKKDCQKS

Experiments:
[1] = biological target: mouse ADAT3-V128L (mouse) (UniProt Q6PAT0); test: crystal structure; co-expressed, purified complex at 12 mg/ml, sitting drop vapor diffusion; two crystal forms of ADAT2/ADAT3-Δloop (2.1 and 3.0 Å), V128L complex at 2.0 Å; both purified
[2] = biological target: mouse ADAT3-Δloop (mouse) (UniProt Q6PAT0); test: as above
[3] = biological target: mouse ADAT3-V128L (mouse) (UniProt Q6PAT0); test: co-expression and co-purification; untagged ADAT2 co-expressed in E. coli BL21(DE3) with His-thioredoxin-ADAT3 (WT or mutant); Talon resin, release by 3C protease overnight at 4°C, HiTrap Q ion exchange, Superdex 200 in 10 mM Tris HCl pH 8.0, 200 mM NaCl, 0.5 mM TCEP
[4] = biological target: mouse ADAT3-V128I (mouse) (UniProt Q6PAT0); test: as above
[5] = biological target: mouse ADAT3-V128M (mouse) (UniProt Q6PAT0); test: as above

Measured: binding

mouse ADAT2 (from UniProt Q6P6J0 1-191) (enzyme)
binds: all assays above
